Measured values reported in the supplement of paper PMC3334620.
Whole data set: some 33,000 sequences, median “E-score (-0.5 to 0.5)” near -0.0014, cut for the highest 2% near 0.25. The list shows a part of the results.

The sequences below were run against T1, Cad1 (UniProt P24813) (assay: PBM E-score (8-mer binding enrichment) (E-score (-0.5 to 0.5)); higher = stronger / more preferred TF binding). Conditions: protein concentration: 100 nM; construct: GST-full length.
T1 sequence: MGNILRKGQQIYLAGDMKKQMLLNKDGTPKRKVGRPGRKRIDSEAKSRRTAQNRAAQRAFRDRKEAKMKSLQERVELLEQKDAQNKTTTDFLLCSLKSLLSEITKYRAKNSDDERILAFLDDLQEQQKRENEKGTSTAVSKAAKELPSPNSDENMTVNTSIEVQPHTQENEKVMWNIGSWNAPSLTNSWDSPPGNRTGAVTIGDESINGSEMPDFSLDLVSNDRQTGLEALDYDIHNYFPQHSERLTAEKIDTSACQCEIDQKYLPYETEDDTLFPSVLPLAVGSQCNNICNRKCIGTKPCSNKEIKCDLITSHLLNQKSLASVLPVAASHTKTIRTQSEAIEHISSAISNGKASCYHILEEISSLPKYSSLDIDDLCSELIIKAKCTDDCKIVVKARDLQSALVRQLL
Procedure, shortened: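 Each ungapped eight-base word and its reverse complement, pooled, received an E-score from the Universal PBM Analysis Suite. Underlying scans, normalised with masliner, recorded fluorescent anti-GST bound to GST-tagged yeast transcription factors. These were applied at about 100-200 nM to universal all-10-mer Agilent arrays double-stranded by primer extension.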

Row | Sequence | PBM E-score
1 | AGCCGAGG | 0.14
2 | GATCTAGC | -0.0963
3 | CCGATAAG | 0.0791
4 | CTATATGC | 0.0505
5 | CGACGCTA | -0.0416
6 | AACATACT | 0.0267
7 | TAACACCA | 0.0194
8 | CATAAGCA | 0.0863
9 | ACATGTTA | 0.135
10 | CTAGTATC | 0.0905
11 | ACTTAAAG | -0.246
12 | AATGTTAT | 0.18
13 | ACCACCCC | -0.248
14 | CCTTACCA | -0.0626
15 | CCAGCACC | -0.289
16 | CACCTCTA | 0.11
17 | CTGTTAAC | 0.258
18 | GGCCAGTA | -0.117
19 | AGATCCCG | 0.281
20 | AAGGTTAG | -0.106
21 | CGATCAGC | 0.118
22 | AGGCTACA | 0.00724
23 | ACTCTCAA | 0.0325
24 | CAGGGCCC | -0.0619
25 | CGTATTTA | 0.142

Row | Sequence | PBM E-score
26 | AAATTCGC | 0.179
27 | CGCTGCTC | -0.19
28 | CCTTAATC | -0.138
29 | CTTTGGAA | -0.113
30 | CGGATATA | 0.246
31 | CTACAATC | 0.155
32 | CCGACAGG | 0.0125
33 | CAATACAG | -0.0308
34 | ATCGCGTG | 0.186
35 | CAACGCCC | -0.155
36 | TAAACAAA | -0.0115
37 | CGGCTTGA | 0.0352
38 | CACAGAGC | 0.00635
39 | AGATTTTG | 0.103
40 | GACATAAC | 0.19
41 | ACTCAAGT | -0.0786
42 | GGGCTACA | -0.129
43 | TGCGGACA | 0.212
44 | AGTGTAGG | 0.0119
45 | AACAACAT | 0.115
46 | GCGCTTAC | 0.299
47 | CACCCGCA | -0.169
48 | AACGTGCC | -0.144
49 | AGCTTCTG | -0.0643
50 | GGCACTGA | -0.0766

Row | Sequence | PBM E-score
51 | CTAACTTC | 0.105
52 | AGAACATC | 0.157
53 | AATGTGCG | 0.164
54 | ACAAAGGC | -0.0281
55 | ATGAGGGC | -0.137
56 | GGACCTCA | -0.133
57 | GCTTCAAA | -0.105
58 | CCGCAAGC | -0.193
59 | GTCGCGAC | 0.391
60 | AACCTATG | 0.00554
61 | AGCTTAAA | 0.0315
62 | CGGTAAGC | 0.083
63 | ACTGATTC | -0.0134
64 | GAAATTCA | 0.169
65 | CTTAGCAA | 0.152
66 | CACGTGCA | 0.125
67 | AGCATATG | -0.0736
68 | ATTGGGGC | -0.0195
69 | AAGGCCCG | -0.176
70 | AAGATAGG | -0.0466
71 | ACAAATCG | 0.161
72 | CCTAGGAC | -0.144
73 | GAGTCAGC | 0.0421
74 | CCCCTCAC | -0.0372
75 | GCGATGCC | -0.291

At a glance, some entries already given.
Row | Sequence | PBM E-score
69 | AAGGCCCG | -0.176
70 | AAGATAGG | -0.0466

Continued:

Row | Sequence | PBM E-score
76 | GTGAGCAA | 0.075
77 | AAGAGCGT | 0.0559
78 | ATTCACAC | 0.118
79 | GCTACGCA | 0.0446
80 | GCTTCTGA | -0.0664
81 | AGACATGA | -0.107
82 | GGAACTTA | 0.111
83 | CTCCGTGC | -0.116
84 | ACAGGGAC | -0.079
85 | ATCAACAG | 0.126
86 | AGATAGAA | -0.0145
87 | GGTATATA | 0.199
88 | AGCTCCAT | -0.00372
89 | ACACTATA | 0.227
90 | GTCTATAA | 0.0252
91 | CATGAGGC | -0.0285
92 | TAAACCCA | 0.119
93 | CTTATCGA | 0.197
94 | GTCATCTA | 0.0267
95 | GACATGCC | -0.0147
96 | AGAAATCT | 0.0393
97 | GGGATTAA | 0.071
98 | ATAAGGAA | -0.0344
99 | CAATAGCG | -0.118
100 | CTATTAAC | 0.141

Row | Sequence | PBM E-score
101 | AGCCCTAC | -0.00995
102 | GTGTTGCA | 0.0674
103 | ATCAGCCG | 0.0966
104 | ACATCCGC | 0.00832
105 | TGGGAGAA | -0.228
106 | ACAGGATG | -0.0633
107 | CATCCGAC | 0.154
108 | ACAGGAGA | 0.091
109 | ACTCCCAG | -0.0146
110 | GGCCTCCC | -0.176
111 | ACTCCCAT | -0.055
112 | AGGGCCAG | -0.106
113 | TGCTTCCA | -0.282
114 | ACTGCAGT | 0.189
115 | CTTCTGGA | -0.161
116 | AGAATTCA | 0.126
117 | ACGAACAT | 0.232
118 | CGCTGTAA | 0.161
119 | ACACATTG | 0.105
120 | CCGGGACG | -0.0924
121 | CATCTCCA | 0.09
122 | ATTGACTG | -0.0463
123 | TTATACAA | 0.229
124 | ATTTTCGG | 0.228
125 | CAGCGTGA | 0.132

Taken from above:
GTGTTGCA – PBM E-score: 0.0674
TTATACAA – PBM E-score: 0.229
AGCCCTAC – PBM E-score: -0.00995
ACAGGATG – PBM E-score: -0.0633
CCGGGACG – PBM E-score: -0.0924
AGAATTCA – PBM E-score: 0.126

Remaining list, next part

Row | Sequence | PBM E-score
126 | AGGACCGA | -0.111
127 | AGGATTTA | 0.0191
128 | ATGTTTAG | 0.209
129 | TCTCCCAA | -0.215
130 | GCTTCACC | -0.0626
131 | CTCATCAG | 0.192
132 | AAGATAAA | 0.204
133 | AGTGTCAT | 0.103
134 | CCTCTATC | -0.08
135 | AAGCGGTA | 0.0576
136 | ACGCGAGG | 0.0276
137 | ACTTGGAG | -0.168
138 | AGTCGACT | 0.287
139 | ACAGATGT | -0.113
140 | GCGCGCGA | 0.265
141 | GGTGCGCA | 0.128
142 | AGGTTTGC | 0.0496
143 | ACTATGGC | -0.0106
144 | TATTCAAA | 0.206
145 | AGTGTGGA | 0.0242
146 | ATTCGACG | 0.112
147 | ATACCCAC | 0.0116
148 | ACATTCCC | 0.125
149 | GACGAAAC | 0.144
150 | ATGCTTAC | 0.112

Random excerpt: 3 entries already listed.
Row | Sequence | PBM E-score
150 | ATGCTTAC | 0.112
40 | GACATAAC | 0.19
129 | TCTCCCAA | -0.215

The list goes on:

Row | Sequence | PBM E-score
151 | AACGGTAG | -0.123
152 | GCACTGGC | -0.0995
153 | GAAAAGCA | 0.0851
154 | CACCAGAC | 0.024
155 | CTTCGAAG | 0.0574
156 | GATCGTGC | 0.163
157 | GCAAGCAA | 0.0279
158 | AATTGGAG | -0.0705
159 | CCGCCGCC | -0.117
160 | ACTCGTCC | -0.177
161 | GAGCACAA | 0.0177
162 | CATGCGAC | 0.0827
163 | CAAATTTA | 0.207
164 | CATAACCG | -0.133
165 | CCCCGGCC | -0.312
166 | ATCTTGTG | -0.0597
167 | AAGGAAGT | -0.0479
168 | AACAAAGC | 0.104
169 | ATCCTCAG | 0.0208
170 | CGCCTCGA | 0.0464
171 | GCAGCATA | 0.135
172 | ACGCAAAA | 0.00524
